# Measurements published in PubChem BioAssay AID1671190 (National Center for Advancing Translational Sciences (NCATS), 2021).
# Chains of the proteins cited; added tags and fusions are not shown. Lines headed by an entry give the natural chain unless they say otherwise; changes in a name come on top.
# UniProt P18054: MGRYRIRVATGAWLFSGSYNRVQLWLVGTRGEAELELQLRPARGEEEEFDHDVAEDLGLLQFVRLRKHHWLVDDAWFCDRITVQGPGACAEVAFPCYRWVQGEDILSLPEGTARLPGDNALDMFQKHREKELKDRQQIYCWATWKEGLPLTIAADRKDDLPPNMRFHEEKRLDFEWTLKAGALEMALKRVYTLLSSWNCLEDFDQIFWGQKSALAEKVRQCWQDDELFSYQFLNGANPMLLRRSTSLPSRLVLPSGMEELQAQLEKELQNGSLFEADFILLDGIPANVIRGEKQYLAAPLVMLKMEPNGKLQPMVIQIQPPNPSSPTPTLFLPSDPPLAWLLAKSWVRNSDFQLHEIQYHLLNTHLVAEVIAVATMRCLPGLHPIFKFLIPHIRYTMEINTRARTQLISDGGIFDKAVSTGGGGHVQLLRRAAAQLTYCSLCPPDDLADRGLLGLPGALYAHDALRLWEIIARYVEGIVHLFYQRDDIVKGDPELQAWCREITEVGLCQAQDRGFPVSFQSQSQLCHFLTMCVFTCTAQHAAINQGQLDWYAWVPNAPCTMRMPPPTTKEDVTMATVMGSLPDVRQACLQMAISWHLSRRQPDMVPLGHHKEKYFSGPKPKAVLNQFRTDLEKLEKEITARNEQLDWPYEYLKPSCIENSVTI
# The whole screen tested about 580,000 compounds, of which about 6,100 (1.1%) were called active. The shares of active, inactive and inconclusive entries below differ from those in the screen. Calls come from the whole dose curve; as a rule, active = well fitted inhibition curve with a large enough effect; inconclusive = small, poorly fitted or top-dose-only effect, or another doubt; inactive = no such curve, though single readings can be large or run the other way. Potencies beside an inconclusive call are fits to weak or partial responses and may not hold up.
# Target: Polyunsaturated fatty acid lipoxygenase ALOX12 (Homo sapiens) (UniProt P18054)
# Experiment: Primary qHTS assay for inhibitors of human arachidonate 12S-lipoxygenase (ALOX12): Round 2
# Details: purified 12hLO, xylenol orange hydroperoxide absorbance; series mostly up to 108 µM
# In short: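 Purified human 12hLO (150 nM final) in 25 mM Hepes, 0.01% Triton X-100, pH 7.0 was preincubated 15 min at room temperature with compound. Then 40 uM arachidonic acid was added, 30 min. Hydroperoxide was read by Fe-XO absorbance ratio 573/405 nm.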
# Potency is the fitted concentration of half-maximal effect.
row,SMILES,Potency
1,Cc1cc(C(=O)CSc2n[nH]c(C3CC3)n2)c(C)n1C1CC1,"inconclusive: 35.5 µM [inhibitor, partial curve, poor fit]"
2,CCOc1ccc(OCC(=O)c2c(O)c3ccccc3oc2=O)cc1,"inconclusive: 22.4 µM [inhibitor, partial curve, poor fit]"
3,NC(=O)c1nn(CC(=O)NCc2ccc(F)cc2)c(=O)c2ccccc12,inactive
4,CCN(C[C@H]1N[C@@](CC)(C(=O)OC)[C@H]2C(=O)N(Cc3ccccc3)C(=O)[C@@H]12)C(=O)c1ccc(C(C)(C)C)cc1,"inconclusive: 35.5 µM [inhibitor, full curve, poor fit]"
5,COc1cccc(S(=O)(=O)NCC(=O)N2CCCCCNC(=O)CC2c2ccccc2)c1 (stereo not drawn),"inconclusive: 89.1 µM [inhibitor, single point]"
6,Cc1cccc2cc(CN(Cc3ccccc3)C(=S)NCCCN(C)C)c(=O)[nH]c12,inactive
7,CC(=O)c1ccc(N2CCN(S(=O)(=O)c3ccc4c(c3)NC(=O)CCS4)CC2)cc1,"inconclusive: 112 µM [inhibitor, single point]"
8,CCOc1ccc(NC(=O)Cn2c(=O)n(C)c(=O)c3sc(N4CCCC4)nc32)cc1,"inconclusive: 39.8 µM [inhibitor, partial curve, poor fit]"
9,COc1cccc(NS(=O)(=O)c2cc3c(cc2C)NC(=O)CO3)c1,inactive
10,O=C(O)C(=O)/C(=C\c1ccc(Cl)cc1)c1ccc2ccccc2n1,"inconclusive: 35.5 µM [inhibitor, partial curve, poor fit]"
11,C=CCN1C(=O)CN=C1Nc1cc(C)cc(C)c1,"inconclusive: 4.47 µM [inhibitor, full curve, poor fit]"
12,CC(N)(CCc1ccccc1)C(=O)O (stereo not drawn),"inconclusive: 2 µM [inhibitor, full curve]"
13,COc1ccc(OC)c(/C=N/NC(=O)c2[nH]ncc2Br)c1,inactive
14,Cc1ccc(-c2cc(C(=O)NC3CC3)c3ccccc3n2)cc1,"inconclusive: 31.6 µM [inhibitor, single point]"
15,CCc1nc(N2CCN(C(=O)c3ccco3)CC2)c2c3c(sc2n1)CCCC3,"inconclusive: 112 µM [inhibitor, single point]"
16,CCC(C)(C)NC(=O)CN(CC1CCCO1)C(=O)CNS(=O)(=O)c1ccccc1 (stereo not drawn),"inconclusive: 126 µM [inhibitor, partial curve, poor fit]"
17,CC1(C)Cc2[nH]c(=O)c(C#N)cc2CS1,"inconclusive: 50.1 µM [inhibitor, single point]"
18,CC(C)n1c(=NC(=O)c2ccco2)c(C#N)cc2c(=O)n3ccccc3cc21,inactive
19,N#Cc1nc(COc2ccc(Cl)cc2)oc1NCc1ccco1,"inconclusive: 35.5 µM [inhibitor, partial curve, poor fit]"
20,C=CCNc1nc(C(=O)OCC(=O)Nc2ccccc2)cs1,"inconclusive: 44.7 µM [inhibitor, partial curve, poor fit]"
21,CC[C@@H]1Cc2[nH][nH]c(=O)c2[C@H](c2ccc(Cl)cc2)O1,"inconclusive: 112 µM [inhibitor, single point]"
22,Cc1cc(C)c(S(C)(=O)=O)c(NN)n1,"inconclusive: 35.5 µM [inhibitor, partial curve, poor fit]"
23,COc1cc(/C=C2\SC(=O)N(CCN)C2=O)ccc1OS(=O)(=O)c1cc(C)ccc1C,"inconclusive: 44.7 µM [inhibitor, partial curve, poor fit]"

# Structures from the list above with a furan ring, fused or not, in the order listed:
row,SMILES,Potency
15,CCc1nc(N2CCN(C(=O)c3ccco3)CC2)c2c3c(sc2n1)CCCC3,"inconclusive: 112 µM [inhibitor, single point]"
18,CC(C)n1c(=NC(=O)c2ccco2)c(C#N)cc2c(=O)n3ccccc3cc21,inactive
19,N#Cc1nc(COc2ccc(Cl)cc2)oc1NCc1ccco1,"inconclusive: 35.5 µM [inhibitor, partial curve, poor fit]"

# Pulled one by one from above:
row,SMILES,Potency
11,C=CCN1C(=O)CN=C1Nc1cc(C)cc(C)c1,"inconclusive: 4.47 µM [inhibitor, full curve, poor fit]"
20,C=CCNc1nc(C(=O)OCC(=O)Nc2ccccc2)cs1,"inconclusive: 44.7 µM [inhibitor, partial curve, poor fit]"
12,CC(N)(CCc1ccccc1)C(=O)O (stereo not drawn),"inconclusive: 2 µM [inhibitor, full curve]"

# Additional records:

row,SMILES,Potency
1,O=C(Nc1cc(-c2ccccc2)nn1C1CCS(=O)(=O)C1)c1ccco1 (stereo not drawn),"inconclusive: 89.1 µM [inhibitor, single point]"
2,CN1CCN(Cc2c(O)c(Cl)cc3c(-c4ccccc4)cc(=O)oc23)CC1,"inconclusive: 63.1 µM [inhibitor, partial curve, poor fit]"
3,COc1cccc(C2C3=C(CC(C)(C)CC3=O)Nc3ccccc3N2C(=O)C(F)(F)F)c1OC (stereo not drawn),"inconclusive: 158 µM [inhibitor, partial curve, poor fit]"
4,NC(=O)c1ccsc1NC(=O)COC(=O)c1cnccn1,inactive
5,CCOC(=O)CN(C(=O)CN1CCC(n2nnc3cc(C)ccc32)CC1)c1ccccc1,inactive
6,NC(=O)COc1ccc(NC(=O)Cn2ncc3ccccc3c2=O)cc1,inactive
7,O=C(/C=C/c1cn(CC(O)CN2CCc3ccccc32)c2ccccc12)c1ccc(Br)cc1 (stereo not drawn),"inconclusive: 3.55 µM [inhibitor, full curve, poor fit]"
8,CCC(=O)N1c2ccc(S(=O)(=O)NCCc3ccccc3)cc2CC1C (stereo not drawn),inactive
9,NC(=O)C1CCN(C(=O)c2cc(Cl)c3c(c2)OCCO3)CC1,"inconclusive: 44.7 µM [inhibitor, partial curve, poor fit]"
10,Cc1ccc(S(=O)(=O)c2nc(-c3ccccc3)oc2NCCCN2CCOCC2)cc1,inactive
11,COc1ccc(C(=O)N2c3ccccc3NC3=C(C(=O)CCC3)C2c2ccccc2OC)cc1 (stereo not drawn),inactive
12,C/C(=N/O)c1oc2ccccc2c1C,"inconclusive: 11.2 µM [inhibitor, partial curve, poor fit]"
13,CC(C)N(C(=O)CSc1ccc(F)cc1)c1ccccc1,"inconclusive: 79.4 µM [inhibitor, single point]"
14,O=C(/C=C1\NC2(CCCC2)Cc2ccccc21)N1CCOCC1,"inconclusive: 35.5 µM [inhibitor, partial curve, poor fit]"
15,Cc1ccc(-n2ncc3c2CC(C)(C)CC3NC(=O)c2ccccn2)cc1 (stereo not drawn),inactive
16,CN(C(=O)CCc1ncc(-c2ccc(F)cc2)o1)C1CCS(=O)(=O)C1 (stereo not drawn),inactive
17,Clc1ccc(OCc2nc(-c3ccc(Br)o3)no2)cc1,inactive
18,COC1=C(C)C(O)=C(C(=O)/C=C/c2ccccc2)C(=O)C1(C)C,inactive
19,Cc1ncc2n1C(=O)N(C1CCN(C(=O)c3ccc(Cl)cc3)CC1)C2,"inconclusive: 10 µM [inhibitor, full curve]"
20,O=C(c1cnn2c(C(F)(F)F)cc(-c3ccc4c(c3)OCO4)nc12)N1CCCC1,"inconclusive: 8.91 µM [inhibitor, full curve, poor fit]"
21,CCOc1ccc(C(=O)Nc2cc(C)ccn2)cc1,"inconclusive: 31.6 µM [inhibitor, partial curve]"
22,COc1ccc(OC)c(NC(=O)[C@H](Cc2ccccc2)N2Cc3ccccc3C2=O)c1,"inconclusive: 0.398 µM [inhibitor, full curve, poor fit]"
23,CC(=O)c1c(C)n(C)c2ccc(OC(=O)c3ccco3)cc12,"inconclusive: 89.1 µM [inhibitor, partial curve, poor fit]"

row,SMILES,Potency
1,CCNC(=O)c1ccc(-n2c(-c3ccccc3)cc3c2CCCCC3)cc1,inactive
2,CC1(c2nnnn2-c2ccc3c(c2)OCCO3)CCC(=O)N1C1CC1 (stereo not drawn),"inconclusive: 39.8 µM [inhibitor, single point]"
3,Cc1c(C(=O)Nc2cccc(C(F)(F)F)c2)oc2ccc(S(=O)(=O)N(C)C3CCCCC3)cc12,inactive
4,O=C(CC1C(=O)N(c2ccccc2)C(=O)N1CCc1cccs1)Nc1ccc(Cl)cc1 (stereo not drawn),"inconclusive: 158 µM [inhibitor, single point]"
5,Cc1nsc(N)c1C(=O)OCc1csc(-c2ccccc2)n1,active: 25.1 µM
6,Clc1ccc(C=Nc2ccccc2Cc2ccccc2)cc1,inactive
7,O=C(OCCOc1ccc(Br)cc1)c1cccc([N+](=O)[O-])c1,"inconclusive: 0.0794 µM [inhibitor, full curve, poor fit]"
8,O=C(COC(=O)CSc1ccc([N+](=O)[O-])cc1)NCCc1ccccc1,"inconclusive: 44.7 µM [inhibitor, partial curve, poor fit]"
9,O=C(/C=C/Nc1ccccc1C(F)(F)F)c1ccco1,"inconclusive: 112 µM [inhibitor, partial curve, poor fit]"
10,Cc1cccc(C)c1NC(=O)Cn1c(=O)c2c(ncn2CC(C)C)n(Cc2ccccc2)c1=O,inactive
11,N#Cc1sc2nc(-c3ccccc3)cc(-c3ccco3)c2c1N,"inconclusive: 4.47 µM [inhibitor, full curve, poor fit]"
12,CCOC(=O)C(=O)/C(=C\N(C)C)c1onc(-c2ccccc2Cl)c1C(=O)OC,"inconclusive: 31.6 µM [inhibitor, single point]"
13,O=C1CC2(CCCCC2)CC(=O)N1CCc1ccccc1,inactive
14,CCCCCc1cc(=O)oc2c(C(CCN(CC)CC)c3cc(OC)c(OC)c(OC)c3)c(OC)cc(OC)c12 (stereo not drawn),"inconclusive: 112 µM [inhibitor, partial curve, poor fit]"
15,COc1ccccc1-n1c(SCC(=O)Nc2ccccc2C)nc(O)cc1=O,inactive
16,CCOc1ccc(N2CC(C(=O)Nc3cccc(S(=O)(=O)N4CCCCC4)c3)CC2=O)cc1 (stereo not drawn),inactive
17,CCOC(=O)[C@H]1[C@H]2COc3ccc(Cl)cc3[C@@H]2N2C(=O)CN(Cc3ccc(F)cc3)C(=O)[C@@]12C,inactive
18,Cc1occc1C(=O)N/N=C/c1cccnc1,inactive
19,N#Cc1ccc(NC(=O)c2nn(C3CCS(=O)(=O)C3)c3c2CCCC3)cc1 (stereo not drawn),"inconclusive: 39.8 µM [inhibitor, partial curve, poor fit]"
20,O=C(/C=C/c1ccccc1)OCCN1C(=O)c2ccccc2C1=O,"inconclusive: 56.2 µM [inhibitor, single point]"
21,COc1ccc(-c2noc(CC3CCN(C(=O)c4ccc(OC)c(OC)c4)CC3)n2)cc1,inactive
22,Cc1cnc(C(=O)N2CCC(F)(c3nc(-c4ccncc4)no3)CC2)cn1,inactive
